Test results taken from the supplement of paper PMC11732987, “Enantioselective OTUD7B fragment discovery through chemoproteomics screening and high-throughput optimisation” (Communications Chemistry, 2025).
The list shows a part of the results. The data scatter; read single values as rough.

By UniProt entry, the sequences of proteins in these tests, tags left out. Where a name states a change or a piece, a line headed by the entry shows the natural chain unless it says otherwise. Residues count along the entry.
UniProt Q9NXD2: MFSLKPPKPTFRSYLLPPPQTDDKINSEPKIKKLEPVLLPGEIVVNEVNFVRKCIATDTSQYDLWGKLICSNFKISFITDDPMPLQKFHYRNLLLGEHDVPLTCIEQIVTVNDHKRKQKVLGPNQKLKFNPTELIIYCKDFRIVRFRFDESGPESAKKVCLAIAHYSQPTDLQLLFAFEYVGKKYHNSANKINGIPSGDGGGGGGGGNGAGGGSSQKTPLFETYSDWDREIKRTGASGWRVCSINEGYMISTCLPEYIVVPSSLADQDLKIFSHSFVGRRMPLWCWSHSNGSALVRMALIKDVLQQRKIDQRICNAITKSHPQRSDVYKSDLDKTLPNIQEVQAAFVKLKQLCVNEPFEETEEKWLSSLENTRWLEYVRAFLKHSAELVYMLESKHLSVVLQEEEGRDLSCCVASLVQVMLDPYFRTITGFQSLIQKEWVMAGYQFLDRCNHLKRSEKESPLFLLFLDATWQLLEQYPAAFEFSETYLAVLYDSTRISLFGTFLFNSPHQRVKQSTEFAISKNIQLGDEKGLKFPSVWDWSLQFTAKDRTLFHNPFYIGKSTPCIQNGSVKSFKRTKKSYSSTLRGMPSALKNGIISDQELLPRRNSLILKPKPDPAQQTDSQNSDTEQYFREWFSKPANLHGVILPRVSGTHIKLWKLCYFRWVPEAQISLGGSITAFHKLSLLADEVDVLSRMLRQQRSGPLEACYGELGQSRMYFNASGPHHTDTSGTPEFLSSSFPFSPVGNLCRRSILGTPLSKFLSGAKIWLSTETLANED
UniProt Q13496: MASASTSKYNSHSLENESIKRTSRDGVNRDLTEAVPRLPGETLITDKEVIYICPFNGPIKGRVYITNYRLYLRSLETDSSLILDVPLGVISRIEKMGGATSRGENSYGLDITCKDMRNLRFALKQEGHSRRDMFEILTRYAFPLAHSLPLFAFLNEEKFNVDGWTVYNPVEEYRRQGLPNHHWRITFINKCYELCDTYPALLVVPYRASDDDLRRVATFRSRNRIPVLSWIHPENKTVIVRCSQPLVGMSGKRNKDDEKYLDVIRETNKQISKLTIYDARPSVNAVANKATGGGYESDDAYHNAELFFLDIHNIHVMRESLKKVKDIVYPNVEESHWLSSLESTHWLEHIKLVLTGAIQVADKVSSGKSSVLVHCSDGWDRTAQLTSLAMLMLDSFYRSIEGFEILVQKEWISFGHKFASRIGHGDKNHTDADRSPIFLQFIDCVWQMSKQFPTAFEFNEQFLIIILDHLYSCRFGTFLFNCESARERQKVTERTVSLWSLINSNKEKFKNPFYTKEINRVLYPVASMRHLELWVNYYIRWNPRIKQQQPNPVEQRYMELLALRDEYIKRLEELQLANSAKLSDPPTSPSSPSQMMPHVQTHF
UniProt O75592: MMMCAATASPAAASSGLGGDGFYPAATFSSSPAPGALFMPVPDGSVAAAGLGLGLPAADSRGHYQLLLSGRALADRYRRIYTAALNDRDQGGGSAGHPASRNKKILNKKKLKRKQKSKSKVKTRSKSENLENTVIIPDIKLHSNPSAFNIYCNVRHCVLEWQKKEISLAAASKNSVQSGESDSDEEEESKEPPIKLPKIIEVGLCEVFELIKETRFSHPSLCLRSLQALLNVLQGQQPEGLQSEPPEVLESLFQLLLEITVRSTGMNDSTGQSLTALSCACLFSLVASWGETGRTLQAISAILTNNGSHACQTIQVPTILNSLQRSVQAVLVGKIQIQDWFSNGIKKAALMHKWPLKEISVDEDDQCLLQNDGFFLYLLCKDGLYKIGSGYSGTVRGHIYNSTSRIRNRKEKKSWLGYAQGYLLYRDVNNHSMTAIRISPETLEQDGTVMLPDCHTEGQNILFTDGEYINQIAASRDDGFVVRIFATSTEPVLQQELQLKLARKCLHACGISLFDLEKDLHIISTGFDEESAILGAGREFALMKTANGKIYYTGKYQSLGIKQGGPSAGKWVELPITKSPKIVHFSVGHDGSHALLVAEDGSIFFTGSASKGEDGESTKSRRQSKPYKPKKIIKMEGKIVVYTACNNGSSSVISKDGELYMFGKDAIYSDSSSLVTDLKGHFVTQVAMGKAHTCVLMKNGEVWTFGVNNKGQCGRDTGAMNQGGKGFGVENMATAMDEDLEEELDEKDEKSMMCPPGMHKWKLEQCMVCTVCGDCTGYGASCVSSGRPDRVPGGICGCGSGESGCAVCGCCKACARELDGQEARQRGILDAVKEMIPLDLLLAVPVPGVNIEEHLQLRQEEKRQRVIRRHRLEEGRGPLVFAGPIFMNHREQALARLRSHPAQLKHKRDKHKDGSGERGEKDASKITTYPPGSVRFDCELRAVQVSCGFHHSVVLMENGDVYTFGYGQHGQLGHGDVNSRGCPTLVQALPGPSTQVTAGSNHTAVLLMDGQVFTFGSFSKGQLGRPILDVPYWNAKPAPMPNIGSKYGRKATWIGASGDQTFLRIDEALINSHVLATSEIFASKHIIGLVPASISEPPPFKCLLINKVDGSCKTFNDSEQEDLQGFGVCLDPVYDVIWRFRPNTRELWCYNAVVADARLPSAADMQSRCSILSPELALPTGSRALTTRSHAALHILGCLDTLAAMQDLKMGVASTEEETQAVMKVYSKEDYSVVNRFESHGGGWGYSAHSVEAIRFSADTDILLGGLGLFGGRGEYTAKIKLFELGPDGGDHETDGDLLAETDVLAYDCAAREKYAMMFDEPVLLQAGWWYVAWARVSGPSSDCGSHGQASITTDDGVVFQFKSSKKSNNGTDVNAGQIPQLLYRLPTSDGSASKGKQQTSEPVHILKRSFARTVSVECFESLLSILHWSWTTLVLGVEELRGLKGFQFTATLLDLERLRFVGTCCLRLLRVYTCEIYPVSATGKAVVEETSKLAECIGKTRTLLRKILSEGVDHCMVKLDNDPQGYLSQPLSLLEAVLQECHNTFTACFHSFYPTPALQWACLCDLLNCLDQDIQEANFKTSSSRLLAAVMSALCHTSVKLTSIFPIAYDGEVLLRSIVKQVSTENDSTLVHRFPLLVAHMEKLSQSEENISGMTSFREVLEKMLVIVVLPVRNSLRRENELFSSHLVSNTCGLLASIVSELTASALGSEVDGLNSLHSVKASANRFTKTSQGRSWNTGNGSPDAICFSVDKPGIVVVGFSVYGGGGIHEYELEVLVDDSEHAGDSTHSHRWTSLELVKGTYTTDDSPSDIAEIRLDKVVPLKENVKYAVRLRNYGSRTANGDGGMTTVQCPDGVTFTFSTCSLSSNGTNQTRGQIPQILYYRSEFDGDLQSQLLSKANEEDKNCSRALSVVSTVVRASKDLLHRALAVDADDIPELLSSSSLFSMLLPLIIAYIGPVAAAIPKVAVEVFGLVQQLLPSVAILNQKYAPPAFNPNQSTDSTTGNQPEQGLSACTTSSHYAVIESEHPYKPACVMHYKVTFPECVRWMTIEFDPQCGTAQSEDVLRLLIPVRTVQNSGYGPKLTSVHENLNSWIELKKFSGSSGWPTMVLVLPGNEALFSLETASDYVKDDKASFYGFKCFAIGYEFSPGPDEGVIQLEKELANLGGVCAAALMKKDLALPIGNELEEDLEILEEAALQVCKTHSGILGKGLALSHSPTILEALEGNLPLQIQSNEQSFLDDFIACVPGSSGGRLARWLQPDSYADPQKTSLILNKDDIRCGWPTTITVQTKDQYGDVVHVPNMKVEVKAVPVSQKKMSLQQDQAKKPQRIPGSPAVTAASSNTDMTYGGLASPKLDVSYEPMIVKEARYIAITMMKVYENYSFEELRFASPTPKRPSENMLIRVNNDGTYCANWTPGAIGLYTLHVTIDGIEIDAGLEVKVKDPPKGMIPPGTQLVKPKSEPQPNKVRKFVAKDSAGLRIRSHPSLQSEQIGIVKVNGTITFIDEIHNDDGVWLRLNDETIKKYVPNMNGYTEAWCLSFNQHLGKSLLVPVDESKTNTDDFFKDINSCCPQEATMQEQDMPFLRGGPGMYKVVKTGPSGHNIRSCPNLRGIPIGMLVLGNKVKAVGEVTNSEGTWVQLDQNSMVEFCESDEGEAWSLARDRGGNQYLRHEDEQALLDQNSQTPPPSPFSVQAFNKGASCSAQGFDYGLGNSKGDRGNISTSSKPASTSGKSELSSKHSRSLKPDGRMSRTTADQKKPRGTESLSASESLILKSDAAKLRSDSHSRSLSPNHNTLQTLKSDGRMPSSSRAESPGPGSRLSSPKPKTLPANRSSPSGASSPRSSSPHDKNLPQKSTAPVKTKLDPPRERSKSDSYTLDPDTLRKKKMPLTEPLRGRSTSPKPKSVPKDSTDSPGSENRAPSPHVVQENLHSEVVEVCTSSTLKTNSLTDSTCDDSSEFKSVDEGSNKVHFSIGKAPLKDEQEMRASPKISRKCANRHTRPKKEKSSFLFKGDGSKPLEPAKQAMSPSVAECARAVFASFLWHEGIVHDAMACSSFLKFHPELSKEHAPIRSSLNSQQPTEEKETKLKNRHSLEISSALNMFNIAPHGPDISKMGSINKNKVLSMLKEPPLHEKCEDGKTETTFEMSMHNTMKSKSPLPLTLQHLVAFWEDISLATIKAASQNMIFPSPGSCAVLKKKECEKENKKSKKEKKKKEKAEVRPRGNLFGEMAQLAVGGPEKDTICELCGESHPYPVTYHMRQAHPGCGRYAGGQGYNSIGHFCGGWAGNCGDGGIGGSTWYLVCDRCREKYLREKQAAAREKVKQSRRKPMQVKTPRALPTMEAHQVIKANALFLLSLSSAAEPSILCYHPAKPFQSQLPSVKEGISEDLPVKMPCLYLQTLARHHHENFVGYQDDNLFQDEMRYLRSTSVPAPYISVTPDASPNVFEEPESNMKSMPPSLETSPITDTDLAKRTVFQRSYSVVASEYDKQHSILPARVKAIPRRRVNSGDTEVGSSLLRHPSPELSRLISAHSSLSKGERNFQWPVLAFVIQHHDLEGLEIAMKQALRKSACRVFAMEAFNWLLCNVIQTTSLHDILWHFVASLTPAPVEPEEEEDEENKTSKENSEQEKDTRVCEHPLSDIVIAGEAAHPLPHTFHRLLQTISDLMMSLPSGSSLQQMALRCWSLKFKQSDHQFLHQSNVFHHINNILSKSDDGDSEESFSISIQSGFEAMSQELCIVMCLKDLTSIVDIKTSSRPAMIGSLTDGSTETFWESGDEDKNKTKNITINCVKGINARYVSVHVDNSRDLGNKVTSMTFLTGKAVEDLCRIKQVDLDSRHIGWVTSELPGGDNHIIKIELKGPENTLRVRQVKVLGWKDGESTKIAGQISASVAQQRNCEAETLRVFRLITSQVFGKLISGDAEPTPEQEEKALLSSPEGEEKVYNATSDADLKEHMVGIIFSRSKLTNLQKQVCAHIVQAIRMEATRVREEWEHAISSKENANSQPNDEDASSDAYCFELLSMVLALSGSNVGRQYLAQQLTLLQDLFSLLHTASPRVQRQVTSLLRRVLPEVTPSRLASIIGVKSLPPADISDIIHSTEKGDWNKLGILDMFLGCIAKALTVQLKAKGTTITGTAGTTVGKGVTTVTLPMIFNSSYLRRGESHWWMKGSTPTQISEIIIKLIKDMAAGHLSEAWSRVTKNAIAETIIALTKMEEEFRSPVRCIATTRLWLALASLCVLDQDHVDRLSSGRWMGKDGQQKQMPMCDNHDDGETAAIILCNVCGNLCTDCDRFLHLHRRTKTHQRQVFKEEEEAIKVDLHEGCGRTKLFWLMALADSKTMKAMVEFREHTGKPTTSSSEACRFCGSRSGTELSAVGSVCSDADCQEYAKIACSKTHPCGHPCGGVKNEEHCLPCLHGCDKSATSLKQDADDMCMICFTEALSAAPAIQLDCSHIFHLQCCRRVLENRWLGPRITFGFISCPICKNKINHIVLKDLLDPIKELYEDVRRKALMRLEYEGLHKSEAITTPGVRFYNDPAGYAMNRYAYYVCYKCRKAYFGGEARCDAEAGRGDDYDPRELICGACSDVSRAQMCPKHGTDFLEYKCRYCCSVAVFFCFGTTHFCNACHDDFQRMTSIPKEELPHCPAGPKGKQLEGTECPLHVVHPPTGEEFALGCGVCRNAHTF
UniProt Q7Z406, 107-126: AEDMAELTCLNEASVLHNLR
UniProt Q6N069, 804-824: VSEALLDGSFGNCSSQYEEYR
UniProt Q9UM54, 368-387: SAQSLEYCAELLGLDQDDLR
UniProt Q99747: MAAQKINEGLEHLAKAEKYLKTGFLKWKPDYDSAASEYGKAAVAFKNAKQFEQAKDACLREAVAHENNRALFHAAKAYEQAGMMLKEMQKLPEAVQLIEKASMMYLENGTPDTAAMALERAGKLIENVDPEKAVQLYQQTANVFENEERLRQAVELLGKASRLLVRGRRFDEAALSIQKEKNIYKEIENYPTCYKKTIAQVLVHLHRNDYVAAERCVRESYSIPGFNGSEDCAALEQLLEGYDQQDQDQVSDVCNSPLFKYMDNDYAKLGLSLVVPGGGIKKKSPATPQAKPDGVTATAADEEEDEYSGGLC

Compound: ClCC(=O)N[C@H]1CCCc2ccccc12
Assay: log2 mean competition ratio of IA-DTB cysteine labelling (DMSO/compound) (log2 ratio); higher = stronger cysteine engagement by compound
Details: treatment time: 4 h, cell line lysate: HEK293T
Procedure: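 IA-DTB competitive cysteine chemoproteomics in HEK293T RIPA lysate. Lysates were treated with compound 29 or 30 at 50 or 200 µM for 4 h, then IA-DTB (500 µM, 1 h), trypsin-digested, NeutrAvidin-enriched and analysed by diaPASEF. Competition ratio = intensity DMSO / intensity compound (n=4 treated, n=64 DMSO); binding: mean log2 CR ≥ 1 and p ≤ 0.05 plus QC filters. Target is the cysteine site.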

MTMR10 C314 (UniProt Q9NXD2)
log2 mean competition ratio (50 µM): 0.548 | log2 mean competition ratio (200 µM): 0.178

NAA40 C26 (UniProt Q86UY6)
log2 mean competition ratio (50 µM): 0.508 | log2 mean competition ratio (200 µM): 0.112

MTM1 C375 (UniProt Q13496)
log2 mean competition ratio (50 µM): -0.217 | log2 mean competition ratio (200 µM): -0.0914

NARS1 C438
log2 mean competition ratio (50 µM): -0.407 | log2 mean competition ratio (200 µM): -0.0177

N4BP2L2 C354
log2 mean competition ratio (50 µM): 0.432 | log2 mean competition ratio (200 µM): 0.289

NARS2 C121 (UniProt Q96I59)
log2 mean competition ratio (50 µM): -0.162 | log2 mean competition ratio (200 µM): 0.146

NAIF1 C61 (UniProt Q69YI7)
log2 mean competition ratio (50 µM): -0.0865 | log2 mean competition ratio (200 µM): 0.00603

NAA15 C721
log2 mean competition ratio (50 µM): 0.23 | log2 mean competition ratio (200 µM): -0.234

MTMR1 C58 (UniProt Q13613)
log2 mean competition ratio (50 µM): 0.0771 | log2 mean competition ratio (200 µM): 0.285

MTMR3 C621 (UniProt Q13615)
log2 mean competition ratio (50 µM): -0.0231 | log2 mean competition ratio (200 µM): 0.114

MYO5B C681
log2 mean competition ratio (50 µM): 0.0748 | log2 mean competition ratio (200 µM): -0.031

MYCBP2 C2951 (UniProt O75592)
log2 mean competition ratio (50 µM): -0.0658 | log2 mean competition ratio (200 µM): 0.0107

MYH14 C115 (UniProt Q7Z406)
log2 mean competition ratio (50 µM): -0.379 | log2 mean competition ratio (200 µM): -0.476

MYO9A C735 (UniProt B2RTY4)
log2 mean competition ratio (50 µM): -0.195 | log2 mean competition ratio (200 µM): 0.386

NAA16 C816 (UniProt Q6N069)
log2 mean competition ratio (50 µM): 0.319 | log2 mean competition ratio (200 µM): -0.0171

MSH6 C1129 (UniProt P52701)
log2 mean competition ratio (50 µM): 0.0744 | log2 mean competition ratio (200 µM): -0.0286

MYO6 C375 (UniProt Q9UM54)
log2 mean competition ratio (50 µM): -0.0641 | log2 mean competition ratio (200 µM): -0.222

NAPG C193 (UniProt Q99747)
log2 mean competition ratio (50 µM): 0.36 | log2 mean competition ratio (200 µM): -0.096

MYO9A C1973 (UniProt B2RTY4)
log2 mean competition ratio (50 µM): -0.207 | log2 mean competition ratio (200 µM): -0.0613

MYCBP2 C4558 (UniProt O75592)
log2 mean competition ratio (50 µM): 0.0398 | log2 mean competition ratio (200 µM): 0.0213

MYCBP2 C4638 (UniProt O75592)
log2 mean competition ratio (50 µM): 0.258 | log2 mean competition ratio (200 µM): -0.283
